Measured values published in the supplement of paper PMC3334620.
The full ranking holds about 33,000 sequences; the median of “E-score (-0.5 to 0.5)” is about -8e-05, and the highest 2% start at about 0.23. The list shows a part of the results.

target: T1, Nrg2 (UniProt P38082); assay: PBM E-score (8-mer binding enrichment) (E-score (-0.5 to 0.5)); higher = stronger / more preferred TF binding; conditions: protein concentration: 100 nM; construct: GST-full length
T1 sequence: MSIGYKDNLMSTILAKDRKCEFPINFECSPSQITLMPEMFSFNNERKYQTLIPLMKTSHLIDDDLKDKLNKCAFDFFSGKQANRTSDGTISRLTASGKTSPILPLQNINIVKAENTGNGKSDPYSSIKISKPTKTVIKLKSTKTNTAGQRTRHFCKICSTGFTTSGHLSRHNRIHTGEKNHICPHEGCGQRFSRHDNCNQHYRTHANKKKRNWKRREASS
In short: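 Yeast transcription factors, full-length or as DNA-binding domains, were expressed with a GST tag using PURExpress in vitro transcription/translation. At about 100-200 nM they were applied to universal all-10-mer Agilent arrays, double-stranded by primer extension on fresh or once-stripped slides. Fluorescent anti-GST detected bound protein, and masliner normalised the scans. E-scores for ungapped eight-base words, pooled with reverse complements, came from the Universal PBM Analysis Suite.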

| Sequence | PBM E-score |
| --- | --- |
| AGTTCTTG | 0.137 |
| CTTTTTAC | -0.0531 |
| AAGATCGT | 0.0712 |
| ATGGTAAA | 0.16 |
| CGGAATAA | -0.075 |
| CAGGGTCG | 0.264 |
| AGGTTCCG | 0.0107 |
| AAAGATCC | 0.0534 |
| CTCTTTTA | -0.0622 |
| AGCCATAC | -0.0672 |
| TGCACAAA | -0.123 |
| CCCGGATC | 0.0926 |
| ACTAGGGC | -0.0479 |
| AAGGGGGG | -0.4 |
| ATCCAAAG | 0.187 |
| CGCCGCCG | 0.0127 |
| CACAGCGC | 0.156 |
| GTCCTAAC | -0.0539 |
| CAATCGTA | 0.147 |
| GGAGGGCA | -0.194 |
| CGGTCTAG | -0.0124 |
| CAATTTCA | -0.0684 |
| AAAATACG | 0.0709 |
| GACTCTAC | -0.037 |
| ATTAACCG | 0.107 |

| Sequence | PBM E-score |
| --- | --- |
| ATGGATGC | 0.0323 |
| CAGTACTG | 0.0483 |
| TACTGGAA | -0.0181 |
| AAGTTAGG | 0.0699 |
| ACTCCATC | 0.097 |
| AGTGTCAG | 0.059 |
| CTTAGGGA | -0.228 |
| ACTCGTCA | 0.0272 |
| TTCGACAA | 0.139 |
| ACTTCCCC | -0.166 |
| ACGTGCAT | -0.117 |
| CTAGCACA | -0.19 |
| CGAGTAAC | 0.0845 |
| CCCCAACG | -0.0878 |
| GTGTATCA | 0.166 |
| GCTGCGGA | 0.0757 |
| GGACCCTA | 0.305 |
| ACAACAAG | 0.0395 |
| CAGCACAC | -0.208 |
| CCTGGACA | 0.0302 |
| GTGGTGAA | -0.0401 |
| TGCAACCA | 0.0707 |
| CTGCACCA | -0.0673 |
| CCAGGCAA | 0.0182 |
| CCTAGTAC | 0.0531 |

| Sequence | PBM E-score |
| --- | --- |
| AGCGAGAC | -0.164 |
| CTTTTGTA | 0.151 |
| ACGACGGG | -0.0412 |
| CTCATGCC | -0.0322 |
| CAGTAACC | 0.0421 |
| ATTCCCCA | 0.103 |
| AACTTTGT | 0.251 |
| CTTCTGGC | -0.0801 |
| GGTTATCA | -0.0196 |
| CACGGGCA | -0.102 |
| ATCACTTC | 0.0894 |
| AGACCCTC | 0.0175 |
| CCCTTAAC | -0.0789 |
| GGGGGACA | 0.00654 |
| CGCCTTAA | 0.01 |
| CGTGGAAG | 0.0767 |
| GGACCTAA | 0.133 |
| CATTCACG | -0.183 |
| GGTGTGGA | 0.0154 |
| AGAGGTCA | 0.0468 |
| CACGGGGC | -0.0105 |
| CGCCGTGA | -0.0232 |
| CACGCGTC | 0.0851 |
| GGGTAACA | -0.0596 |
| ATATAATA | 0.213 |

| Sequence | PBM E-score |
| --- | --- |
| CGCCATGC | -0.0442 |
| GAAATGAA | 0.29 |
| CAGAATGA | 0.0965 |
| AACCATTG | -0.0415 |
| ATCCTTGC | -0.0413 |
| AATTACCC | 0.0849 |
| CCAAAGCA | 0.119 |
| CCAGAACC | -0.0345 |
| GCTCTGCC | -0.161 |
| CCCTAGCA | -0.0573 |
| GGTTTGCA | 0.0429 |
| AGCTTGGG | 0.0188 |
| CTATAGAC | -0.0648 |
| GTGTAGAA | -0.191 |
| CGACGAAG | -0.0496 |
| ACTACCTA | -0.0145 |
| GGATTCCC | -0.124 |
| CATTGAGA | 0.0182 |
| GGGTTAAC | 0.0998 |
| CCAGGTCA | -0.276 |
| CAGCGTCA | -0.167 |
| AGCAAACA | 0.0834 |
| TGGCTCAA | -0.0784 |
| AATCTGAT | 0.118 |
| CCTCTTAC | -0.0717 |

| Sequence | PBM E-score |
| --- | --- |
| CGTTCAAA | 0.101 |
| AGTTCCTG | 0.0667 |
| CATTGCGA | 0.0343 |
| AGTCGACG | 0.225 |
| AGAGCACC | -0.0541 |
| GCCGTGAA | 0.0848 |
| TGGCGCAA | -0.0359 |
| ATTAACTC | 0.183 |
| GGTGTCTA | -0.154 |
| GGGTGAAA | -0.0047 |
| AGATTAAG | 0.0205 |
| AGGGTAGC | 0.181 |
| AGCCGAGC | 0.0355 |
| ATATCTCG | 0.0423 |
| CATGCGTC | -0.109 |
| CGGTATGA | 0.0729 |
| GAGCGTCA | -0.0373 |
| GAGCGAAC | -0.0967 |
| TCAATACA | 0.0827 |
| ATAACACC | 0.0784 |
| GTGTGCTA | -0.0679 |
| AGCGAGTG | 0.0308 |
| AATGAAAG | -0.027 |
| AAGAGTCA | -0.114 |
| CCTAGAGG | -0.19 |

| Sequence | PBM E-score |
| --- | --- |
| GTTGACCA | 0.179 |
| AAGTTACT | -0.0227 |
| CGTACGGA | 0.0835 |
| ACTATACC | 0.122 |
| ACCCGGGC | -0.0713 |
| ATAAGCAG | -0.0137 |
| ATCCTCGC | 0.0292 |
| CGCGCGCA | 0.296 |
| GCACGTCC | 0.0773 |
| AACGGGAC | -0.00871 |
| TGTTCTAA | 0.133 |
| CACCCCGA | -0.0616 |
| ACGAGAAG | -0.0995 |
| GTAGGATA | 0.0533 |
| CTAGTACC | -0.121 |
| ATGAAGTC | -0.0277 |
| TAAGCATA | -0.11 |
| AATCCACG | 0.0453 |
| AAATGGTT | -0.0104 |
| AATATAAC | 0.167 |
| CGCCCGAC | 0.101 |
| ATGGGCCA | 0.0231 |
| ACACGAGA | -0.0205 |
| CAGTCCAA | -0.00577 |
| ACCGAAAG | -0.145 |

An excerpt of these results, with bars between the fields:
Sequence | PBM E-score
GTTGACCA | 0.179
AAGTTACT | -0.0227

Given with bars between the fields: entries from further up
Sequence | PBM E-score
GCACGTCC | 0.0773
TAAGCATA | -0.11
AATATAAC | 0.167
CAGTCCAA | -0.00577

Carrying on.

| Sequence | PBM E-score |
| --- | --- |
| CATACTCG | 0.14 |
| AGACAGCA | 0.0249 |
| TACTACAA | 0.134 |
| AAGTGTTA | 0.0809 |
| ACATAAAC | 0.0128 |
| AGCGGACA | -0.126 |
| ATTAACGC | -0.0843 |
| TCGCCAGA | -0.0661 |
| AATAAACC | 0.182 |
| CTACTCGA | -0.035 |
| AATTAGCA | 0.206 |
| TCACCGAA | 0.0353 |
| ACGTGATA | 0.0362 |
| AAAAAAGA | 0.0551 |
| CTAGTCGC | -0.253 |
| CTAGACAA | -0.0221 |
| CAGGAACA | -0.105 |
| ACGGCCCC | -0.285 |
| ACAGCAAG | 0.135 |
| AACTAGCC | -0.00471 |
| GAAGCGGC | -0.141 |
| GACGTGAA | -0.0822 |

2 entries from above, tab-delimited.
Sequence	PBM E-score
TCGCCAGA	-0.0661
AATAAACC	0.182
